Reference: the supplement of paper PMC12823440, “Inhibitors supercharge kinase turnover through native proteolytic circuits” (Nature, 2025)
Counter-ions that a name gives are not always drawn. The list shows a part of the results. The calls rarely recur for the same compound in another form.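 Kinases, fused to nanoluciferase, were expressed in K562 cells; luminescence was measured every 4 h from 2 to 18 h as percent of control (DMSO = 100%, positive control = 0%). A time point is decreased if signal falls significantly (2 sigma). Hits were called by the authors by a rule that is not shown; the count of time points alone does not decide it.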

Chains of the proteins cited; added tags and fusions are not shown. Lines headed by an entry give the natural chain unless they say otherwise; changes in a name come on top.
UniProt Q15208: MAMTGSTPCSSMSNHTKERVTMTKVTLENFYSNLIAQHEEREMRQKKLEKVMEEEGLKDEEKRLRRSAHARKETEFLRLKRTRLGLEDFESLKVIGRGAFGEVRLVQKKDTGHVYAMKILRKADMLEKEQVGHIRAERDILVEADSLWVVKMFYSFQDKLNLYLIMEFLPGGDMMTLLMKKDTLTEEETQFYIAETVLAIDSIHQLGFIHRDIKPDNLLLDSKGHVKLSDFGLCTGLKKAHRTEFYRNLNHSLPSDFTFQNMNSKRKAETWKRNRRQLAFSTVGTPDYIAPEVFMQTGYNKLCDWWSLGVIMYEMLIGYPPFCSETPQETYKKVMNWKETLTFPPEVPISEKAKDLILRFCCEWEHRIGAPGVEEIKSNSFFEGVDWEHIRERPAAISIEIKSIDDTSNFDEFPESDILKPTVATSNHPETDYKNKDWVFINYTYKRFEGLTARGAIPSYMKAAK

Molecular target: STK38 (UniProt Q15208)
Assay: number of time points (of 5) at which kinase-Nluc abundance scored as decreased, DMSO-normalised (count); higher = more persistent destabilization
Settings: K562; 2-18 h

Compound	number of time points
C[C@H]1Cc2ccccc2N1C(=O)Cc1nc(N2CCOCC2)cc(=O)[nH]1 (2.5 µM)	0
CC(C)c1cc(/C=C(\C#N)C(N)=O)cc(C(C)C)c1O (10 µM)	0
COc1c(C)c(C(=O)c2ccc(N)c(C(=O)O)c2)n2ccccc12 (10 µM)	0
C[C@@H]1CCc2ncc(F)cc2[C@H]2CCCN2c2ccn3ncc(c3n2)C(=O)N1 [Selitrectinib] (10 µM)	0
CCN(C)C(=O)c1ccc2c(C(=Nc3ccc(CN4CCCCC4)cc3)c3ccccc3)c(O)[nH]c2c1 (2.5 µM)	0
O=C(CO)N1CCC(c2n[nH]c(-c3ccc(Cl)cc3)c2-c2ccncn2)CC1 (10 µM)	0
C[C@@H]1COCCN1c1cc(C2([S@](C)(=N)=O)CC2)nc(-c2cc[nH]c3nccc2-3)n1 [Ceralasertib] (2.5 µM)	0
CCOC(=O)c1c2c3c(cccc3[nH]c1=O)C(=O)c1ccccc1-2 (10 µM)	0
O=C(c1ccc(Nc2nccc(-c3cc4ccccc4s3)n2)cc1)N1CCC(N2CCCC2)CC1 (2.5 µM)	0
Cc1ccc(-c2nn(C(C)(C)CNC(=O)c3ccncc3)c3ncnc(N)c23)cc1 (2.5 µM)	0
O=C(O)c1ccc(-c2c[nH]c3ncc(-c4ccccc4)cc23)cc1C1CCCC1 (2.5 µM)	0
CCOc1nc(Nc2ccc(C(=O)N3CCOCC3)cc2OC)nc2[nH]ccc12 [LRRK2 inhibitor 1] (2.5 µM)	0
CN(CC(=O)N(Cc1ccc(C2CCCCC2)cc1)c1ccc(C(=O)O)c(O)c1)S(=O)(=O)c1c(F)c(F)c(F)c(F)c1F (2.5 µM)	0
Nc1nc2cc(-c3ccc4ncc(C(=O)N5CCOCC5)n4c3)ccc2o1 [Serabelisib] (10 µM)	0
OCCN(CCO)c1ccc(C(c2ccc(Cl)cc2)c2ccc(N(CCO)CCO)cc2)cc1 (10 µM)	0
O=c1nc(N2CCOCC2)oc2c(-c3cccc4c3sc3ccccc34)cccc12 (10 µM)	0
c1ccc(-c2nn3c(c2-c2ccnc4cc(OCCN5CCOCC5)ccc24)CCC3)nc1 (10 µM)	0
O=C(Nc1ccc(Cl)c(Cl)c1)Nc1ccc2nnsc2c1 (10 µM)	0
N#C/C(=C(/N)Sc1ccc(N)cc1)c1ccccc1C(F)(F)F (10 µM)	0
O=c1ccoc2cc(O)ccc12 [7-Hydroxy-4H-chromen-4-one] (10 µM)	0

Compound	number of time points
COc1cc(C(=O)N2CCC(N3CCN(C)CC3)CC2)ccc1Nc1ncc2c(n1)N(C)c1ccccc1C(=O)N2C (10 µM)	0
CC(=O)Nc1nc2ccc(-c3cnc(C)c(NC(=O)OC4CCCCC4)c3)cc2s1 (10 µM)	0
O=C1NC(=O)C(c2cn(-c3ccccc3)nc2-c2ccc(F)cc2)N1 (centres undefined) (10 µM)	0
CCCCNC(=N)NC(=N)N [Buformin (hydrochloride)] (2.5 µM)	0
C[C@H]1[C@H](OC(=O)CCC(=O)O)O[C@@H]2O[C@@]3(C)CC[C@H]4[C@H](C)CC[C@@H]1[C@@]24OO3 [Artesunate] (2.5 µM)	0
COc1ncc(Nc2ncc([C@@H](C)N3CCN(S(C)(=O)=O)CC3)cc2-c2nc(C)nc(N)n2)cc1F (10 µM)	0
COC1(C(=O)N[C@@H](C)c2ccc(-n3cc(F)cn3)nc2)CCC(c2nc(C)cc(Nc3cc(C)[nH]n3)n2)CC1 (stereo partly drawn) [trans-Pralsetinib] (2.5 µM)	0
CC(=O)NCCc1c[nH]c2ccc(O)cc12 [N-Acetyl-5-hydroxytryptamine] (10 µM)	0
O=[N+]([O-])c1ccc(Sc2cccc[n+]2[O-])c2nonc12 (2.5 µM)	0
COc1ccc(CNc2nc(N(CCO)CCO)nc3c2ncn3C(C)C)cc1 (2.5 µM)	0
CC(CCc1ccccn1)(CCc1ccccn1)C(=O)c1ccccc1 (10 µM)	0
[O-][n+]1cccc(-c2nc3c(Cl)cccc3cc2[C@@H](Nc2ncnc3cccnc23)C(F)(F)F)c1 [Seletalisib] (10 µM)	0
Cc1cc2cc(Oc3ccnc(Nc4cccc(CS(=O)(=O)NCCN(C)C)c4)n3)ccc2[nH]1 [Sulfatinib] (10 µM)	0
O=C1NC(=O)C(c2cnc3ccccn23)=C1c1cn2c3c(cc(F)cc13)CN(C(=O)N1CCCCC1)CC2 (2.5 µM)	0
Cc1ccc(-c2ncn(-c3ccc(Nc4nccc(-c5cccc(N6CCOCC6)c5)n4)cc3)n2)cn1 (10 µM)	0
COc1ccc2c(c1OC)OC1c3ccc(O)cc3OCC21 (centres undefined) [Methylnissolin] (10 µM)	0
Cn1cc(-c2ccc3nnc(C(F)(F)c4ccc5ncccc5c4)n3n2)cn1 (10 µM)	0
Nc1ncc(-c2ccc(C(=O)N3CCNCC3)cc2)nc1-c1ccc(C(F)(F)F)cc1 (10 µM)	0
CN(C)Cc1cccc(N=C(c2ccccc2)c2c(O)[nH]c3cc(C(=O)N(C)C)ccc23)c1 (10 µM)	0

Fetched by compound from above, two records:
Compound	number of time points
COc1ncc(Nc2ncc([C@@H](C)N3CCN(S(C)(=O)=O)CC3)cc2-c2nc(C)nc(N)n2)cc1F (10 µM)	0
N#C/C(=C(/N)Sc1ccc(N)cc1)c1ccccc1C(F)(F)F (10 µM)	0
